According to PubChem BioAssay AID328 (DTP/NCI, 2004):
The list is a part of this screen's results and no random one: it is rich in T/C values a quarter to a half above the control, in often repeated tests (any T/C) and in doses without a T/C. Other doses and runs of a compound stand elsewhere. T/C: endpoint of the treated group in % of that of the vehicle group. Some doses have a count of surviving animals in place of a T/C: the source holds a T/C of zero for them, seemingly a mark for toxic or unscored doses. Some survivor counts are full or nearly so, which does not show that the dose was tolerated: survival well below the control is almost never listed, so the zero probably covers shortened survival too. Survivors were counted at the toxicity check, usually on the fifth day, unless a day is given; later deaths do not show. Schedule codes are those of the source, taken here to give the interval after Q, in days (D) or hours (H), and the number of doses after X. For survival time, this PubChem deposit counts one and a half times the control or more as active, and values a quarter to a half above the control carry no call in these data; other NCI protocols may use other cut-offs. Some entries were tested several times; the results are listed from low to high. Some T/C values are followed by the survivors on the day toxicity was checked, most often the fifth; without a count, all were alive then.

Tested on: BDF1 mice, P388 leukemia ip, median survival T/C
Test: NCI In Vivo Anticancer Drug Screen. Data for tumor model P388 Leukemia (intraperitoneal) in B6D2F1 (BDF1) mice
Settings: T/C endpoint: median survival time, higher T/C = longer survival
Outline: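 Antitumour effect was judged in vivo: survival in drug-treated mice, normalised to that of vehicle-dosed controls, gives the reported T/C.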

[1] = dose: 200.0 mg/kg/injection, schedule: Q04DX003 (ip), vehicle: Klucel (hydroxypropylcellulose) (HPC)
[2] = dose: 100.0 mg/kg/injection, schedule: Q01DX009 (ip), vehicle: water
[3] = dose: 100.0 mg/kg/injection, schedule: Q01DX009 (ip), vehicle: Klucel (hydroxypropylcellulose) (HPC)

## O=C1C=CC(=O)c2c(Cl)ccc(O)c21
dose: 1.25 mg/kg/injection, schedule: Q01DX009 (ip), vehicle: Klucel (hydroxypropylcellulose) (HPC)
  T/C: 135 % of control
dose: 2.5 mg/kg/injection, schedule: Q01DX009 (ip), vehicle: Klucel (hydroxypropylcellulose) (HPC)
  T/C: 125 % of control
dose: 5.0 mg/kg/injection, schedule: Q01DX009 (ip), vehicle: Klucel (hydroxypropylcellulose) (HPC)
  T/C: 140 % of control
dose: 10.0 mg/kg/injection, schedule: Q01DX009 (ip), vehicle: Klucel (hydroxypropylcellulose) (HPC)
  survivor count: 3 of 6

## O=C1C=CC(=O)c2cc(Cl)c(Cl)cc21
dose: 6.25 mg/kg/injection, schedule: Q01DX009 (ip), vehicle: saline with Tween-80
  T/C: 127 % of control

## Cc1cccc(NC(=O)CCc2ccc(N3C(N)=NC(N)=NC3(C)C)cc2)c1
dose: 200.0 mg/kg/injection, schedule: Q01DX009 (ip), vehicle: saline with Tween-80
  survivor count: 3 of 6
dose: 300.0 mg/kg/injection, schedule: Q01DX009 (ip), vehicle: saline with Tween-80
  T/C: 131 % of control [5 of 6 alive]

## C[C@]12CC[C@@H]3c4ccc(Oc5nc(N6CC6)nc(N6CC6)n5)cc4CC[C@H]3[C@@H]1CCC2=O
dose: 12.5 mg/kg/injection, schedule: Q01DX009 (ip), vehicle: saline with Tween-80
  T/C: 141 % of control
dose: 25.0 mg/kg/injection, schedule: Q01DX009 (ip), vehicle: saline with Tween-80
  survivor count: 5 of 6
dose: 50.0 mg/kg/injection, schedule: Q01DX009 (ip), vehicle: saline with Tween-80
  survivor count: 2 of 6
dose: 100.0 mg/kg/injection, schedule: Q01DX009 (ip), vehicle: saline with Tween-80
  survivor count: 0 of 6

## O=C(/C=C/c1ccc2c(c1)OCO2)c1ccc([N+](=O)[O-])cc1
dose: 100.0 mg/kg/injection, schedule: Q04DX003 (ip), vehicle: Klucel (hydroxypropylcellulose) (HPC)
  survivor count: 3 of 6
[1]
  survivor count: 0 of 6

## O=C(c1ccccc1)N1CC1
dose: 12.5 mg/kg/injection, schedule: Q01DX009 (ip), vehicle: water
  survivor count: 6 of 6
dose: 50.0 mg/kg/injection, schedule: Q01DX009 (ip), vehicle: water
  T/C: 126 % of control
[2]
  survivor count: 6 of 6
dose: 200.0 mg/kg/injection, schedule: Q01DX009 (ip), vehicle: water
  survivor count: 5 of 6

## CCCCCCCC(=O)NCCCC
[1]
  survivor count: 6 of 6

## CCOC(=O)Nc1cc2c(c(N)n1)N=C(CN(C)c1ccc(OC)cc1)CN2
dose: 100.0 mg/kg/injection, schedule: Q01DX001 (ip), vehicle: Klucel (hydroxypropylcellulose) (HPC)
  survivor count: 1 of 6
dose: 200.0 mg/kg/injection, schedule: Q01DX001 (ip), vehicle: Klucel (hydroxypropylcellulose) (HPC)
  survivor count: 0 of 5

## CC(C)(CCC(C)(C)NCCC#N)NCCC#N
dose: 100.0 mg/kg/injection, schedule: Q01DX009 (ip), vehicle: saline
  T/C: 128 % of control [5 of 6 alive]

## OC(CBr)C(O)C(O)C(O)CBr (centres undefined)
[3]
  survivor count: 10 of 10
dose: 200.0 mg/kg/injection, schedule: Q01DX009 (ip), vehicle: Klucel (hydroxypropylcellulose) (HPC)
  T/C: 130 % of control [9 of 10 alive]
dose: 250.0 mg/kg/injection, schedule: Q01DX001 (ip), vehicle: carboxymethylcellulose (CMC)
  T/C: 125 % of control
dose: 500.0 mg/kg/injection, schedule: Q01DX001 (ip), vehicle: carboxymethylcellulose (CMC)
  T/C: 130 % of control
dose: 500.0 mg/kg/injection, schedule: Q01DX010 (ip), vehicle: carboxymethylcellulose (CMC)
  survivor count: 6 of 6
dose: 500.0 mg/kg/injection, schedule: Q01DX010 (ip), vehicle: saline
  survivor count: 6 of 6
dose: 1000.0 mg/kg/injection, schedule: Q01DX010 (ip), vehicle: carboxymethylcellulose (CMC)
  survivor count: 5 of 6

## COc1cc(OC)c2c[n+](C)c3c4cc(OC)c(OC)cc4ccc3c2c1
dose: 6.25 mg/kg/injection, schedule: Q01DX009 (ip), vehicle: Klucel (hydroxypropylcellulose) (HPC)
  T/C: 144 % of control
[3]
  survivor count: 6 of 6

## CN=C(N)Nc1ccc(C(=O)Oc2ccc([N+](=O)[O-])cc2)cc1
[2]
  survivor count: 5 of 6
dose: 400.0 mg/kg/injection, schedule: Q04DX003 (ip), vehicle: water
  survivor count: 4 of 6

## Cc1ccc2c[n+]3cc4ccccc4cc3cc2c1
dose: 2.0 mg/kg/injection, schedule: Q01DX009 (ip), vehicle: saline
  T/C: 135 % of control
dose: 3.12 mg/kg/injection, schedule: Q01DX009 (ip), vehicle: saline
  T/C: 136 and 140 % of control
dose: 6.25 mg/kg/injection, schedule: Q01DX009 (ip), vehicle: saline
  T/C: 127 % of control
dose: 9.2 mg/kg/injection, schedule: Q01DX009 (ip), vehicle: saline
  survivor count: 0 of 6
dose: 14.0 mg/kg/injection, schedule: Q01DX009 (ip), vehicle: saline
  survivor count: 0 of 6
dose: 18.0 mg/kg/injection, schedule: Q04DX003 (ip), vehicle: saline
  survivor count: 5 of 6
dose: 21.0 mg/kg/injection, schedule: Q01DX009 (ip), vehicle: saline
  survivor count: 0 of 6
